Measurements published in PubChem BioAssay AID624415 (National Center for Advancing Translational Sciences (NCATS), 2012).
The campaign covered roughly 390,000 compounds. About 60 (0.02%) were called active. Inconclusive results, whose numbers are uncertain, are shown with a selection of clear calls. Rule as the data show it: active = activity change below about -50%; inconclusive = between about -30% and that limit; inactive = weaker than that.
% is scaled to controls: 0 for no effect and ±100 for the full control effect.
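Also: stimulus is agonist 54-4 at its EC80 concentration.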

Amino acid sequences for entries named in this document (tags omitted).
UniProt Q9GZU1, whole entry, looked up: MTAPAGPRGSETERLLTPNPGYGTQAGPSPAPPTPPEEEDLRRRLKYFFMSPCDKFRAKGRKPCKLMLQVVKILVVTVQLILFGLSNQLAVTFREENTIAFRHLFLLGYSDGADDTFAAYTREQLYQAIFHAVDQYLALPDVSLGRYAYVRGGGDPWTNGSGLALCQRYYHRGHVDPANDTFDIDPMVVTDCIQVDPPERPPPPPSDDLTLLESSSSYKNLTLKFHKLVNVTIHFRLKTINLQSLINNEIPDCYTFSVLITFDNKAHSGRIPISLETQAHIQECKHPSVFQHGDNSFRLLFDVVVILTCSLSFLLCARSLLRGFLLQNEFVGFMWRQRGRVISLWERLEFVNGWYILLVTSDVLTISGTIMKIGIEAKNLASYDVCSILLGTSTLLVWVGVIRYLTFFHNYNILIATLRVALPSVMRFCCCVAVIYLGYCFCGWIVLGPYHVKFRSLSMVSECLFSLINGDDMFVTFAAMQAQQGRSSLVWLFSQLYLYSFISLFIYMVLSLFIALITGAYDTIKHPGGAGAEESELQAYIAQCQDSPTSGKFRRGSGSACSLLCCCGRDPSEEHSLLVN

The compounds below were run against Mucolipin-1 (Homo sapiens) (UniProt Q9GZU1) (assay: qHTS for Inhibitors of the Human Mucolipin Transient Receptor Potential 1 (TRPML1)). Conditions: TRPML1-inducible cells, Ca2+ dye fluorescence, FDSS; stronger effect = lower value; inhibition of EC80 agonist-evoked calcium signal.
How it was run: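 Calcium fluorescence in TRPML1-DL cells induced overnight with Tet: a 110 s read after compound pin addition, then a 110 s antagonist read after challenge with 54-4 at 4 uM final (EC80).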
FC(F)(F)c1nnc2c(Sc3ccccn3)nc3ccccc3n12 was tested, and the activity change, negative = inhibition was inconclusive: -30.5%. In the case of N/C(=N\O)c1ccc(Cl)cc1Cl, the activity change, negative = inhibition is reported as inconclusive: -33.1%. CSc1cccc(CNC(=O)C2CCC(=O)N(CCc3ccccn3)C2)c1 (centres undefined) was tested, and the activity change, negative = inhibition was inconclusive: -34.5%. In the case of Cc1ccc(-c2cc(C(F)(F)F)c(C#N)c(SCC(=O)Nc3ccccc3F)n2)cc1, the activity change, negative = inhibition is reported as inconclusive: -38.6%. In the case of Cc1cnc(NC(=O)/C=C/c2ccc(Br)o2)s1, the activity change, negative = inhibition is reported as inconclusive: -31.5%. In the case of COCC(O)CNc1ccccc1 (centres undefined), the activity change, negative = inhibition is reported as inconclusive: -46.3%. In the case of Cc1ccc(Oc2ccc(C(=O)NCc3ccncc3)cc2)cc1, the activity change, negative = inhibition is reported as inactive: 6.01%. Fc1ccc(CSc2nnc3ccccn23)c(Cl)c1 was tested, and the activity change, negative = inhibition was inactive: 13.7%. For Cc1ccccc1CN1CCCN(CC(=O)Nc2ccc3c(c2)OCCO3)S1(=O)=O, the activity change, negative = inhibition was inconclusive: -31.3%. O=C(CN1CCN(c2ccccn2)CC1)Nc1ccccc1 was tested, and the activity change, negative = inhibition was inconclusive: -31.7%. For COc1ccccc1CNC(=O)c1oc2ccc(S(=O)(=O)N3CCCC3)cc2c1C, the activity change, negative = inhibition was inconclusive: -32.2%. For COc1ccc(CN(C(=O)/C=C/c2ccco2)C2CCS(=O)(=O)C2)cc1 (centres undefined), the activity change, negative = inhibition was inactive: -11.3%. In the case of Cc1nc(NCc2ccco2)[nH]c(=O)c1CCC(C)C, the activity change, negative = inhibition is reported as inactive: 12.2%. CCOC(=O)c1c(NC(=O)CCC(=O)N2CCOCC2)sc2c1CC(C)(C)OC2 was tested, and the activity change, negative = inhibition was inconclusive: -35.6%. In the case of Cn1c(=O)c2c(ncn2CCC(=O)N/N=C/c2ccncc2)n(C)c1=O, the activity change, negative = inhibition is reported as inconclusive: -31.2%. CC1(C)Cc2nc3sc4c(N(CCO)CCO)nnnc4c3cc2CO1 was tested, and the activity change, negative = inhibition was inactive: -5.62%. With O=C(c1ccc2ncsc2c1)N1CCN(c2ccccc2Cl)CC1 the activity change, negative = inhibition was inconclusive: -45.5%. O=C(Nc1nnc(COc2ccccc2F)s1)Nc1ccccc1F was tested, and the activity change, negative = inhibition was inconclusive: -30.4%. O=[N+]([O-])c1ccc(N2CCNCC2)cc1Sc1nc2ccccc2[nH]1 was tested, and the activity change, negative = inhibition was inactive: 2.48%. CC1CCN(C(=O)CSc2nc(-c3ccccc3)no2)CC1 was tested, and the activity change, negative = inhibition was inconclusive: -31.9%. In the case of O=C(NCc1ccc(Cl)cc1Cl)C1CC(=O)N(Cc2ccccc2)C1 (centres undefined), the activity change, negative = inhibition is reported as inconclusive: -40.2%. With Cc1nc(-c2cccc(S(=O)(=O)N3CCCC(C)C3)c2)cs1 (centres undefined) the activity change, negative = inhibition was inactive: -3.2%. COc1cccc2cc(C(=O)CS(=O)(=O)c3ccc(Cl)cc3)c(=O)oc12 was tested, and the activity change, negative = inhibition was inactive: 4.4%. In the case of NC(=O)CNC1CC(=O)N(CCc2ccccc2)C1=O (centres undefined), the activity change, negative = inhibition is reported as inconclusive: -31.8%. In the case of CCO[C@H]1OC(C(=O)N2CCN(Cc3ccccc3)CC2)=C[C@@H](C2CCCCC2)[C@@H]1CCCO, the activity change, negative = inhibition is reported as inactive: 19.7%. For Cc1ccc(N2CCN(C(=O)c3ccccc3NC(=O)c3ccccc3C(=O)O)CC2)cc1, the activity change, negative = inhibition was inactive: -1.06%. In the case of O=[N+]([O-])c1ccc(N/N=C/c2ccccc2O)cc1, the activity change, negative = inhibition is reported as inactive: -9.85%. In the case of Nc1c(Cl)ncnc1NCCO, the activity change, negative = inhibition is reported as inconclusive: -30.2%. In the case of c1ccc(-c2nc(N3CCCCC3)nc3ccccc23)cc1, the activity change, negative = inhibition is reported as inconclusive: -31.8%. For CCSc1nnc(-c2ccncc2)o1, the activity change, negative = inhibition was inactive: -2.62%. With O=C(NNS(=O)(=O)c1ccccc1[N+](=O)[O-])c1ccc(F)cc1 the activity change, negative = inhibition was inconclusive: -39.7%. In the case of O=C(Cc1cccc2ccccc12)NCC(=O)Nc1ccccc1F, the activity change, negative = inhibition is reported as inconclusive: -32.7%. In the case of COc1c(C)cc(S(=O)(=O)NCc2ccco2)c(C)c1C, the activity change, negative = inhibition is reported as inactive: 14%. With C=CCn1c(=O)c(C(=O)NCc2ccc3c(c2)OCO3)c(O)c2cc(OC)c(OC)cc21 the activity change, negative = inhibition was inconclusive: -34.3%. In the case of O=C(NC(c1ccccc1)c1cnccn1)C1CCN(CCCOc2ccccc2)CC1 (centres undefined), the activity change, negative = inhibition is reported as inconclusive: -38.8%. C=C(c1ccccc1)c1ccccc1N was tested, and the activity change, negative = inhibition was inconclusive: -30.3%. With CN(C)/C=C/C(=O)c1ccc(Br)s1 the activity change, negative = inhibition was inconclusive: -37.6%. For COCCN1C(=O)CC(NNC(=O)c2ccc(S(=O)(=O)N3CCCC3)cc2)C1=O (centres undefined), the activity change, negative = inhibition was inconclusive: -33.6%. For Cc1[nH]n(C(N)=S)c(=O)c1N=Nc1ccc(S(=O)(=O)N2CCCC2)cc1, the activity change, negative = inhibition was inactive: 5.37%. COc1ccc(CN(C)Cc2nc3scc(-c4ccccc4)c3c(=O)[nH]2)cc1OC was tested, and the activity change, negative = inhibition was inconclusive: -35%. In the case of CCC(=O)Nc1nc(-c2ccc3c(c2)OCCO3)cs1, the activity change, negative = inhibition is reported as inconclusive: -38.9%. For O=C(CCN1C(=O)c2ccccc2C1=O)Nc1ccc(-c2cn3ccsc3n2)cc1, the activity change, negative = inhibition was inconclusive: -38.5%. For CCOC(=O)C1(CCc2ccccc2)CCN(Cc2nccn2CC)CC1, the activity change, negative = inhibition was inactive: -19.3%. In the case of Cc1cc(C)cc(Cn2c3ccc(NC(=O)NCc4ccccc4)cc3c(=O)n2C)c1, the activity change, negative = inhibition is reported as inconclusive: -42.2%. For Cc1cc(-c2ccn[nH]2)c(C)s1, the activity change, negative = inhibition was inconclusive: -32.6%. In the case of CCOC(=O)C1CCN(Cc2cccc(OC)c2)CC1, the activity change, negative = inhibition is reported as inactive: -9.41%. For COc1ccc(-c2cc3c(=O)n(CC(=O)NCCCN4CCC(N5CCCCC5)CC4)ncn3n2)cc1, the activity change, negative = inhibition was inconclusive: -42.3%. With CCCCOC(=O)c1ccc(NC(=O)Cc2coc3ccc(C(C)C)cc23)cc1 the activity change, negative = inhibition was inconclusive: -32.1%. For Cc1cc(C)cc(NC(=O)c2sc3nc(-c4cc5ccccc5oc4=O)[nH]c(=O)c3c2C)c1, the activity change, negative = inhibition was active: -50.1%. In the case of CCc1ccc(NC(=O)CSc2nc3c(sc4ccccc43)c(=O)n2CCCOC(C)C)cc1, the activity change, negative = inhibition is reported as inconclusive: -39.8%. O=C(O)c1ccc(/C=N/O)cc1 was tested, and the activity change, negative = inhibition was inconclusive: -30.8%. In the case of CN(C)CCNC(=O)/C(=C/c1cccc([N+](=O)[O-])c1)NC(=O)c1ccccc1, the activity change, negative = inhibition is reported as inconclusive: -30.1%. With COc1ccc(C)cc1N(C)C(=O)c1c2c(nc3ccccc13)C(=O)N(C1CCCCC1)C2 the activity change, negative = inhibition was inactive: -10.1%. With O=C(N=C1SC2CS(=O)(=O)CC2N1CCc1ccccc1)C1CCCCC1 (centres undefined) the activity change, negative = inhibition was inactive: 2.65%. For COc1ccc(OCCSc2ncnc3nc[nH]c23)cc1, the activity change, negative = inhibition was inactive: 7.1%. N#Cc1c(N)n(Cc2ccccc2)c(=O)c2cc([N+](=O)[O-])ccc12 was tested, and the activity change, negative = inhibition was inactive: -6.69%. CCn1cc(Cl)c(C(=O)NNC(=O)CCn2ccc([N+](=O)[O-])n2)n1 was tested, and the activity change, negative = inhibition was inactive: 11.2%. O=C(c1cc(NC(=O)C23CC4CC(CC(C4)C2)C3)cc(NC(=O)C23CC4CC(CC(C4)C2)C3)c1)N1CCCCC1 was tested, and the activity change, negative = inhibition was inconclusive: -33%. For COc1ccc(NC(=O)[C@H](NC(=O)[C@@H]2Cc3ccccc3CN2)c2ccccc2)cc1, the activity change, negative = inhibition was inconclusive: -30.9%. O=C(COC(=O)CCC(=O)c1cccs1)Nc1ccccc1[N+](=O)[O-] was tested, and the activity change, negative = inhibition was inconclusive: -32.6%. In the case of CCOc1ccc(CN2CCC(n3nccc3NC(=O)c3ccccc3OC)CC2)cc1, the activity change, negative = inhibition is reported as inactive: -17%. CCCCCCCCC(=O)N/N=C/c1ccccn1 was tested, and the activity change, negative = inhibition was inactive: 2.88%. For CC(=O)Nc1sc(/C(C#N)=C/c2ccc(Cl)c(Cl)c2)nc1-c1ccc(C)cc1, the activity change, negative = inhibition was inconclusive: -31.3%. COc1cc(OC)c(Nc2cc(C)nc3nc(C)nn23)cc1Cl was tested, and the activity change, negative = inhibition was inconclusive: -32.9%. For C/C(=N/Nc1ccc([N+](=O)[O-])cc1)c1ccc(C)cc1C, the activity change, negative = inhibition was inactive: -12.8%. In the case of COc1cc(C)c(C)cc1S(=O)(=O)Nc1cccc(-c2ccc(N3CCOCC3)nn2)c1, the activity change, negative = inhibition is reported as inactive: 8.23%. With CNC(=O)c1c(NC(=O)c2ccc(S(=O)(=O)N3CCC(C)CC3)cc2)sc2c1CCC2 the activity change, negative = inhibition was inconclusive: -37.9%. COc1cccc(-n2c(=O)c3ccccc3n3c(=S)[nH]nc23)c1 was tested, and the activity change, negative = inhibition was active: -50.7%. In the case of Cc1ccc(OCC(=O)Nc2cc3nn(-c4ccccc4)nc3cc2C)cc1, the activity change, negative = inhibition is reported as inactive: 43.1%. In the case of O=S(=O)(Nc1ccccc1)c1ccc(NS(=O)(=O)c2c(F)cccc2F)cc1, the activity change, negative = inhibition is reported as inconclusive: -35.9%. With Cc1cc(C)c2c(CC(=O)N3CCN(c4cccc(Cl)c4)CC3)coc2c1 the activity change, negative = inhibition was inconclusive: -35.3%. With CCOC(=O)C1CCCN(CCC(=O)Nc2cc(C)ccc2C)C1 (centres undefined) the activity change, negative = inhibition was inconclusive: -31%. With O=C(Sc1nnc(-c2ccccc2)o1)N1c2ccccc2Sc2ccccc21 the activity change, negative = inhibition was inconclusive: -42.6%. In the case of O=C(CNc1cccc2ccccc12)N/N=C/C=C/c1ccco1, the activity change, negative = inhibition is reported as inconclusive: -39.5%. For O=C(c1cccn1-c1nnc(N2CCCC2)s1)N1CCN(c2ccc(F)cc2)CC1, the activity change, negative = inhibition was inconclusive: -31.7%. In the case of CCc1ccc(S(=O)(=O)NC(=S)NC2CCCCC2)cc1, the activity change, negative = inhibition is reported as inactive: -16.5%. For Cc1cc(Nc2ccccc2)n2nc(C)c(-c3ccccc3)c2n1, the activity change, negative = inhibition was inactive: 36.1%. With O=C(O)c1ccc(N/N=C/c2c(F)cccc2Cl)cc1 the activity change, negative = inhibition was inactive: 2.54%. Cc1cc(=O)oc2cc(NC(=O)C(CCCN=C(N)N)NC(=O)OCc3ccccc3)ccc12 (centres undefined) was tested, and the activity change, negative = inhibition was active: -52%. In the case of CC(=O)c1cn(CC(=O)Nc2ccccc2C)c2ccccc12, the activity change, negative = inhibition is reported as inconclusive: -31.9%. With O=S(=O)(c1ccccc1)N1CCN(C(=S)Nc2ccc(F)cc2)CC1 the activity change, negative = inhibition was inconclusive: -31.4%. With CCOc1ccccc1CN1CCN(C/C=C/c2ccc(OC)cc2)CC1CCO (centres undefined) the activity change, negative = inhibition was inactive: -4.71%. Cc1cccc(N2CCN(CC(O)COCc3cccs3)CC2)c1C (centres undefined) was tested, and the activity change, negative = inhibition was inactive: 35.4%. With Cc1c(Cc2c(C)n(C)n(-c3ccccc3)c2=O)c(=O)n(-c2ccccc2)n1C the activity change, negative = inhibition was inconclusive: -31.1%. For COc1ccc(C(=O)Nc2cc(NC(=O)c3ccco3)ccc2OC)cc1Cl, the activity change, negative = inhibition was inconclusive: -30.2%. For O=C(Nc1cccc(NC(=O)c2cc([N+](=O)[O-])ccc2Cl)n1)c1cc([N+](=O)[O-])ccc1Cl, the activity change, negative = inhibition was inconclusive: -34.3%. With Oc1ccc(N=Cc2ccc(-c3cccs3)s2)cc1 the activity change, negative = inhibition was inactive: 2.27%. For Cc1nc2c(c(=O)c3ccccc3n2C)c(=O)n1-c1ccc(F)cc1, the activity change, negative = inhibition was inconclusive: -40.2%. In the case of O=C(NCCCNCCCNC(=O)c1ccc(/C=N/O)nc1)c1ccc(/C=N/O)nc1, the activity change, negative = inhibition is reported as inconclusive: -41.4%.
